Reference: doi:10.1101/2025.03.24.645050
Results are given in words; binding and its absence hold for the method and conditions named.

Amino acid sequences for entries named in this document (tags omitted). A change or cut given only in a name is not applied to a line headed by its entry.
UniProt Q96SW2: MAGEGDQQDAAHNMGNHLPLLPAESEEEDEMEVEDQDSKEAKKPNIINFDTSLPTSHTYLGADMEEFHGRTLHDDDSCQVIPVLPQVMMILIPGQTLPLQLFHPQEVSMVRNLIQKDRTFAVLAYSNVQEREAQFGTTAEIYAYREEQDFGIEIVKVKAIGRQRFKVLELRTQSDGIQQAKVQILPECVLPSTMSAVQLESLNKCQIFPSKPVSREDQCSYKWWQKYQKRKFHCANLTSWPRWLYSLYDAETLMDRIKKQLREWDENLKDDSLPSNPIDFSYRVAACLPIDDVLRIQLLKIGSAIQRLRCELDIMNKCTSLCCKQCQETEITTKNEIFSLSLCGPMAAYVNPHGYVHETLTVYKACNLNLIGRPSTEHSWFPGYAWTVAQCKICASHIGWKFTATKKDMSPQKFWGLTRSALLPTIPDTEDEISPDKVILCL
UniProt P15104: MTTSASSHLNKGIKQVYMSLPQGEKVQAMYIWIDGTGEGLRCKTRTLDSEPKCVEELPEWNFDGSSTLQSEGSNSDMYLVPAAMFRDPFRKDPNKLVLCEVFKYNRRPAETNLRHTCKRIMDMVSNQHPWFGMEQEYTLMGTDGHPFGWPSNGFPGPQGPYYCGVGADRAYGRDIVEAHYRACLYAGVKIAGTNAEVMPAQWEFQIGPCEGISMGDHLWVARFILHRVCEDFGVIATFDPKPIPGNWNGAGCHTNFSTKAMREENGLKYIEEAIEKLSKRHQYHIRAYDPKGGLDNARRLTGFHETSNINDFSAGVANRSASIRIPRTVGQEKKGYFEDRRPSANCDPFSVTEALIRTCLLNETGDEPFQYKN

Target: His6-CRBN/DDB1 complex (UniProt Q96SW2)
Test: AlphaScreen or HTRF

- binding: no binding
Substance: Full-length GST-GLUL N373A incubated with PCMT1 (from UniProt P15104 1-373) (enzyme)
